Experimental data as given in publication PMC7819943, “Rice protein-binding microarrays: a tool to detect cis-acting elements near promoter regions in rice”.
This is one part of the list.

Amino acid sequences for entries named in this document (tags omitted).
UniProt Q0JBA9, entry or part of it: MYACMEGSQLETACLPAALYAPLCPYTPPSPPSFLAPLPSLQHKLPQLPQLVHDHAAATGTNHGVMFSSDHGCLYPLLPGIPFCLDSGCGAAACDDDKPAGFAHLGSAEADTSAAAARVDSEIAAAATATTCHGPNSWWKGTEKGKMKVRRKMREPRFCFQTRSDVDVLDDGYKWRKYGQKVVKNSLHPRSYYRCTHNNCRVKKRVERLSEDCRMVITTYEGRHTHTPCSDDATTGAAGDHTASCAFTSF

Molecular target: OsWRKY34 (Oryza sativa, UniProt Q0JBA9 1-250)
Experiment: protein-binding microarray (RPBM); PBS, 2% BSA, 51.3 ng/ul salmon testes DNA, 50 uM zinc acetate, 200 nM TF, 25 C, 1 h; high values mean tight binding
Conditions: protein: recombinant; tags: N-terminal polyhistidine and DsRed monomer fusion (pET32a); label: CyDye5-dUTP incorporated in the synthesized complementary strand; 3' TTTTT single-stranded linker to array surface; dsDNA, one strand shown
How it was run: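 Transcription factors were made in E. coli BL21-CodonPlus as N-terminal fusions to a polyhistidine tag and DsRed, then purified on Ni–NTA. After primer extension with Cy5-dUTP and blocking with 2% BSA, a custom Agilent array was exposed for 1 h at 25 °C to 200 nM protein in PBS, 2% BSA, salmon testes DNA and 50 µM zinc acetate. Washed arrays were scanned on an Axon 4000B, and the binding signal is per-feature fluorescence intensity in arbitrary units.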

Sequence | binding signal
ATAGTTTGGTCAATGTTTATGTGGTTTTGTGAAATTTACTCGGAGTCACCTAGTGCAG | 9860 fluorescence intensity (a.u.)
ACTGGCGCGGTTTTTTTTCGGGTTTCCCTCGTTTTTTTTCCGGAGTCACCTAGTGCAG | 8630 fluorescence intensity (a.u.)
ACCTCATAAGCCTCTCTACTTAAGGACAACGCCGCCACCACGGAGTCACCTAGTGCAG | 8460 fluorescence intensity (a.u.)
GCGACACGATCTCCAAAACATAACTTTGATTTCTTGTTTCCGGAGTCACCTAGTGCAG | 10800 fluorescence intensity (a.u.)
GTAACCGGTAGCGTTCATACCCATTTTGATACCTATTCGTCGGAGTCACCTAGTGCAG | 9130 fluorescence intensity (a.u.)
AACCCATTTCCCATCTCTCTCATCTCCTCTCTCATCCACTCGGAGTCACCTAGTGCAG | 8440 fluorescence intensity (a.u.)
TTTCTTCTTCGTCGTCTCGGTTCACTCCTCCGTTCGATCGCGGAGTCACCTAGTGCAG | 10300 fluorescence intensity (a.u.)
GCACGTTACAACTTTCGCTTCTTAATTGTTGAACCGATCCCGGAGTCACCTAGTGCAG | 10100 fluorescence intensity (a.u.)
GTCAGTCGTCACCACTGCCGCTCTCCTCGGGTTCGACTCTCGGAGTCACCTAGTGCAG | 8030 fluorescence intensity (a.u.)
AATCCTTTGTTTTACACTTACATTCCTATCAAAATCCTACCGGAGTCACCTAGTGCAG | 9730 fluorescence intensity (a.u.)
GGTTTGGTTTTGTTTAGTGGGTTAGAAGCCAATGAGAGCACGGAGTCACCTAGTGCAG | 10300 fluorescence intensity (a.u.)
TGTGACTCTTGTCTTTTTGTCTCCGTATACATACATCTCCCGGAGTCACCTAGTGCAG | 11000 fluorescence intensity (a.u.)
GGGTATATACCGTGACCCTGATCGCCACACCGACCGGATACGGAGTCACCTAGTGCAG | 13600 fluorescence intensity (a.u.)
CTCCGCCTCCTCACTCCAATTCCATTCGCCTTCCGCCACCCGGAGTCACCTAGTGCAG | 11500 fluorescence intensity (a.u.)
CTCTCCTCTCATCTCATCTCATCTCCAAGGCTGGTCTTTACGGAGTCACCTAGTGCAG | 8320 fluorescence intensity (a.u.)
CCGCTGTGTGCATATACTAGACAAGCATATTACTCTATCCCGGAGTCACCTAGTGCAG | 9020 fluorescence intensity (a.u.)
TGGCGGCTCGGTGGCGGAGCTCCGGTGTGGGGTGGTGTGGCGGAGTCACCTAGTGCAG | 8140 fluorescence intensity (a.u.)
TAGGCTGATGGGTCTTCATGCTTCGGTTCATCTTCGTCTCCGGAGTCACCTAGTGCAG | 10200 fluorescence intensity (a.u.)
GGGTTTCCTAATGCATCAATGTTCTTTTTTTAACTCGAACCGGAGTCACCTAGTGCAG | 9970 fluorescence intensity (a.u.)
TTGTGGGAGGAGGGGATGGAATGATGATGACTCTGTTTTTCGGAGTCACCTAGTGCAG | 8200 fluorescence intensity (a.u.)
CATATTGACTCACTCACTGCTATGGCATACTTACAATTATCGGAGTCACCTAGTGCAG | 9000 fluorescence intensity (a.u.)
CTCTGCGTGGGTGCGACCTGTTCCGTGACAGATTTCGATGCGGAGTCACCTAGTGCAG | 8160 fluorescence intensity (a.u.)
GAAATCCTCCGATCGAAATCATCGAACCGTCTCTTCTACACGGAGTCACCTAGTGCAG | 8600 fluorescence intensity (a.u.)
TCTCGCCGCCATTGTCACGTCTCACGTGCGCGCCACCACCCGGAGTCACCTAGTGCAG | 8970 fluorescence intensity (a.u.)
AACCTCTACTGCTCCATATATTTTCTTTCTGTCAGCCCATCGGAGTCACCTAGTGCAG | 11200 fluorescence intensity (a.u.)
ATCGTCCACTCTCACAGTCTCACACGCGCTAAATTATCATCGGAGTCACCTAGTGCAG | 14200 fluorescence intensity (a.u.)
CTGTCGTTGTTCTGCTAATTAATCTCGTAGCATTATTTACCGGAGTCACCTAGTGCAG | 8190 fluorescence intensity (a.u.)

Sequence | binding signal
CCGCTTGATCTCCGGCGAAGCTCCTCTACCGCCGCCGGCGCGGAGTCACCTAGTGCAG | 10000 fluorescence intensity (a.u.)
CCCACCGTCGAGCGCCACCAACCCGCCGCCACCGTGCGCCCGGAGTCACCTAGTGCAG | 8240 fluorescence intensity (a.u.)
GTGTTTGTGGTGGGCGGCCTTGGAGGATTGTCACCACCGGCGGAGTCACCTAGTGCAG | 9470 fluorescence intensity (a.u.)
TTTGTCTTTTCTTCTTTTTCTTGGCATAAGCCAGTCTGTCCGGAGTCACCTAGTGCAG | 9680 fluorescence intensity (a.u.)
ACGATGAGGAAGATCTATGCCCTTGCCTCTATGTCATTAACGGAGTCACCTAGTGCAG | 8920 fluorescence intensity (a.u.)
CATCCCATTGCCCGCACTCTCTCGCTCTCCCACTCGCACCCGGAGTCACCTAGTGCAG | 8660 fluorescence intensity (a.u.)
TTCCTGTCATCATGATGCACGCGTGCATTGCTATTTACTACGGAGTCACCTAGTGCAG | 8770 fluorescence intensity (a.u.)
ACGTTTCTATATATTTGGTATGAGCCCATATTTATCTTTGCGGAGTCACCTAGTGCAG | 13400 fluorescence intensity (a.u.)
TCCCAAGATGCTGCCATGGCTGCCTGTTCGAGTCACTTGCCGGAGTCACCTAGTGCAG | 9240 fluorescence intensity (a.u.)
TCTGTCATCTAGCGCCCGCGTTCACATCCTGACATCGCCTCGGAGTCACCTAGTGCAG | 10400 fluorescence intensity (a.u.)
CTTTTTCCTTGCAATCGTGATTCTTTTTTTTTTCCCTTTTCGGAGTCACCTAGTGCAG | 17400 fluorescence intensity (a.u.)
AGGTTGGTGATTCAGAGATGTCGAGACGTGTGTTCTTTTGCGGAGTCACCTAGTGCAG | 9200 fluorescence intensity (a.u.)
CCTCTCTTTCTCTTCTCTCTACTAACGGTAATCACATGAGCGGAGTCACCTAGTGCAG | 8110 fluorescence intensity (a.u.)
TCCTGCAACTGTTCTTGAGACTGGGTATGTTATCTTCAGCCGGAGTCACCTAGTGCAG | 8380 fluorescence intensity (a.u.)
AGCACGCACGCACACTTTACTCTCTCCTTTTTCCGATCGACGGAGTCACCTAGTGCAG | 10100 fluorescence intensity (a.u.)
TGCTTTATACCAGACTAGCTGTGCCTCTTATCGTTGTTTCCGGAGTCACCTAGTGCAG | 12200 fluorescence intensity (a.u.)
CGCTCTCGCCTGCAGTATTTGTTCCATTGCCGCGCACCACCGGAGTCACCTAGTGCAG | 12900 fluorescence intensity (a.u.)
CAATTTTGTTTTTACAACTTTTTCACATGAGTTCATTTATCGGAGTCACCTAGTGCAG | 8650 fluorescence intensity (a.u.)
CCTCCAACCTCGTGAGCTCCGCCTCCACCTCGCTGCTGCTCGGAGTCACCTAGTGCAG | 8140 fluorescence intensity (a.u.)
AACTCTCTTATACTATCTTTACTCTAGCAACAAACTCAATCGGAGTCACCTAGTGCAG | 8080 fluorescence intensity (a.u.)
TGTTCTTTGCAGTTGCTGTTTATTCATCTTGGCCAAGTGCCGGAGTCACCTAGTGCAG | 8910 fluorescence intensity (a.u.)
GGACTTATTTTGCACCGGTTTTAACAGTTGAGGGACCTGTCGGAGTCACCTAGTGCAG | 10300 fluorescence intensity (a.u.)
CGAACGGTTTAACATATTTAAAAAAGTCAACGGCGTCAAACGGAGTCACCTAGTGCAG | 8310 fluorescence intensity (a.u.)
CATGAAAATTTTGGTGGGATAGGGATGGGGAATTGAGAAACGGAGTCACCTAGTGCAG | 10400 fluorescence intensity (a.u.)
ATCAAAACTTTTCTGCACACATAAACTTTCAATTTTTTCGCGGAGTCACCTAGTGCAG | 8930 fluorescence intensity (a.u.)
GTCGTACATCGGGTGGATATATGTTACTTCACATTTTTTTCGGAGTCACCTAGTGCAG | 10000 fluorescence intensity (a.u.)
ATATAATTCCGTTGAACGGTCTTGCTTGTGCTTTGGATAACGGAGTCACCTAGTGCAG | 8650 fluorescence intensity (a.u.)

As a short view, part of the list above:
Sequence | binding signal
AGGTTGGTGATTCAGAGATGTCGAGACGTGTGTTCTTTTGCGGAGTCACCTAGTGCAG | 9200 fluorescence intensity (a.u.)
CCTCTCTTTCTCTTCTCTCTACTAACGGTAATCACATGAGCGGAGTCACCTAGTGCAG | 8110 fluorescence intensity (a.u.)
TCCTGCAACTGTTCTTGAGACTGGGTATGTTATCTTCAGCCGGAGTCACCTAGTGCAG | 8380 fluorescence intensity (a.u.)
AGCACGCACGCACACTTTACTCTCTCCTTTTTCCGATCGACGGAGTCACCTAGTGCAG | 10100 fluorescence intensity (a.u.)
